Source: patent publication US6942981
These are yes or no findings as the source states them, for the method shown. Some binding calls cover weakened binding; strength is not graded here. For some assays here: Tags and fused reporters may be left off the sequences shown.

Columns and labels:
[1] = molecular target: GST-PSD95 PDZ domains 1-3 fusion protein (human); test: A/G assays (Table 2)
[2] = molecular target: T1, GST-NeDLG PDZ domains 1-2 fusion protein (Mus musculus (Mouse)) (UniProt P70175); test: A/G assays (Table 2)
T1 sequence: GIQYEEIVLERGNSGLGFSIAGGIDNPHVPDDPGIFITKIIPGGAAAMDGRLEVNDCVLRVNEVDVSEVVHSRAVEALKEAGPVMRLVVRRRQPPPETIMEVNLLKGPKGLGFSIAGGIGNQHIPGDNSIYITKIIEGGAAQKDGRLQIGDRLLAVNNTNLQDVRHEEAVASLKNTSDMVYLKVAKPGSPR

[3] = molecular target: T2, GST-AF6 PDZ domain fusion protein (Homo sapiens (Human)) (UniProt P55196); test: A/G assays (Table 2)
T2 sequence: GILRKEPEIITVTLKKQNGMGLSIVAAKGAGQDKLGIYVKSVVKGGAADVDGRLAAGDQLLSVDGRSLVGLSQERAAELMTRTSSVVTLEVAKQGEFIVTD

[4] = molecular target: T3, GST-41.8 kD (hypothetical 41.8 kD protein) PDZ domain fusion protein (Mus musculus (Mouse)) (UniProt Q9EQZ7); test: A/G assays (Table 2)
T3 sequence: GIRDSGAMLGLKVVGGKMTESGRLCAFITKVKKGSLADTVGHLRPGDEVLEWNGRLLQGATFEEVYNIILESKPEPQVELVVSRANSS

[5] = molecular target: GST-PSD95 PDZ domains 1-3 fusion protein (human); test: A assay
[6] = molecular target: T1, GST-NeDLG PDZ domains 1-2 fusion protein (Mus musculus (Mouse)); test: A assay
[7] = molecular target: T2, GST-AF6 PDZ domain fusion protein (Homo sapiens (Human)); test: A assay
[8] = molecular target: T3, GST-41.8 kD (hypothetical 41.8 kD protein) PDZ domain fusion protein (Mus musculus (Mouse)); test: A assay

Measured: binding

CAISGTSSDRGYGSPRYAEV (biotin at the amino-terminus) [CLASP-4 C-terminal peptide AA3L-V]
binds: all assays above
